In patent US11628176B2, “Combinational drug therapies” (Opna Bio SA, priority 2020, dated 2023) one finds IC50 data, which are given here for one compound.

For one assay, the system named is LNCaP cells. Put plainly: Prostate cancer cell growth assay, single compound (CellTiter-Glo). The assay is classed as cell-based. The following applies: Homo sapiens, 120 h, 5 days incubation, n=3, read-out: IC50 (geometric mean). On the procedure:
(§1) Growth assays were done in triplicate and performed as follows.
(§2) 1. On Day 1, LNCaP and 22Rv1 cells were seeded in wells of a 96-well plate at a density of 3000 cells/well in 100 μL of culture media (RPMI 1640 medium supplemented with 10% fetal bovine serum and 1% Penicillin/Streptomycin). Cells were incubated overnight at 37° C. in a humidified atmosphere with 5% CO2.
(§3) 2. On Day 2, for single compound treatment studies, each compound was serially diluted 1:3 in DMSO to create a 9-point titration. A 3 μL aliquot of each dilution was added to 747 μL culture media and 100 μL were added to each triplicate well. Wells containing 0.2% DMSO-treated cells served as uninhibited controls.
(§4) In all studies, cells were incubated at 37° C. in a humidified atmosphere with 5% CO2 for 5 days.
(§5) 3. On Day 7, cell cultures were brought to room temperature for 30 minutes and 50 μL of reconstituted CellTiter-Glo Reagent was added to each well. Plates were shaken at room temperature for approximately 15 minutes Luminescent signal was quantified on a microplate reader.
(§6) 1. For single compound treatment study, all responses were expressed as % inhibition (the percentage inhibition compared to the average response of the DMSO-treated control wells). The data were analyzed by using nonlinear regression to generate IC50 values in Prism (GraphPad, La Jolla, Calif.). […]
In general terms: Cellular ATP, detected with luciferase, serves as a proxy for viable cell number.

For another assay, the system named is 22Rv1 cells. The description is as above. Type of assay: cell-based. The following applies: Homo sapiens, 120 h; 22Rv1 cell growth, 5 days incubation, n=3; read-out: IC50 (geometric mean). On the procedure:
as §1, §2, §3, §4, §5, §6

For the compound `CNC(=O)c1ccc(N2C(=S)N(c3ccc(C#N)c(C(F)(F)F)c3)C(=O)C2(C)C)cc1F` [enzalutamide], the IC50 (as a rule, the concentration needed to halve the response being measured) in the assay on LNCaP cells came to 6.8 µM; in the assay with 22Rv1 cells, 51 µM.
